Laboratory results taken from PMC8576004.
These are yes or no findings as the source states them, for the method shown. In cells and extracts the contact can be indirect. For part of these data: A result given as binding can be weak or reduced; the word gives no strength. Values belong to the molecule of their own block, whether it stands above or below them.

How the values were obtained:
[1] = biological target: T1, FRET-based intramolecular interaction probe of USP8 (FRIP8) (human) (UniProt P40818); assay: co-IP; as a6, but the lysate was incubated with 100 μM R18 peptide at 4 °C for 30 min before immunoprecipitation
T1 sequence: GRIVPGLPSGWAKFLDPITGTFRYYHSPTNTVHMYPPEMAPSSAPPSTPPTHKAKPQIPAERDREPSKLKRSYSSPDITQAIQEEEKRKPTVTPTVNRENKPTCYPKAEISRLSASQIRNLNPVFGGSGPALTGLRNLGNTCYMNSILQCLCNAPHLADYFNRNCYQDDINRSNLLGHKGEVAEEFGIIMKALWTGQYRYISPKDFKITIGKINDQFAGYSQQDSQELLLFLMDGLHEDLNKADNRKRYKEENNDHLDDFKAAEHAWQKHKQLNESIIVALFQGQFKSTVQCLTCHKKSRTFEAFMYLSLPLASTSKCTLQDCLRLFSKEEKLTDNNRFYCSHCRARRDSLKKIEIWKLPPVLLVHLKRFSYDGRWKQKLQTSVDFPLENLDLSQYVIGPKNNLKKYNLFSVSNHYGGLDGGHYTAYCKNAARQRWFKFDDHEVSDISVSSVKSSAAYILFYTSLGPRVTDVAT

[2] = biological target: T1, FRET-based intramolecular interaction probe of USP8 (FRIP8) (human); assay: co-IP; HEK293 lysates; anti-FLAG beads (FLAG-USP8) or anti-GFP antibody (FRIP8); washed five times with lysis buffer; immunoblotting for 14-3-3
GST-tagged 14-3-3 = assay: pull-down; total cell lysates adsorbed with GST-tagged 14-3-3; phosphorylation of the 14-3-3-binding motif of USP8 measured in the adsorbed fraction (Supplementary Fig. 5a)

binding [1]: no binding (only with 100 μM R18) | binding [2]: binds
Molecule: 14-3-3ε (expressed with FRIP8) (human)

binding (GST-tagged 14-3-3): binds
B1: cellular USP8 (phosphorylated in the 14-3-3-binding motif) (enzyme, UniProt P40818 1-1118)
chain: MPAVASVPKELYLSSSLKDLNKKTEVKPEKISTKSYVHSALKIFKTAEECRLDRDEERAYVLYMKYVTVYNLIKKRPDFKQQQDYFHSILGPGNIKKAVEEAERLSESLKLRYEEAEVRKKLEEKDRQEEAQRLQQKRQETGREDGGTLAKGSLENVLDSKDKTQKSNGEKNEKCETKEKGAITAKELYTMMTDKNISLIIMDARRMQDYQDSCILHSLSVPEEAISPGVTASWIEAHLPDDSKDTWKKRGNVEYVVLLDWFSSAKDLQIGTTLRSLKDALFKWESKTVLRNEPLVLEGGYENWLLCYPQYTTNAKVTPPPRRQNEEVSISLDFTYPSLEESIPSKPAAQTPPASIEVDENIELISGQNERMGPLNISTPVEPVAASKSDVSPIIQPVPSIKNVPQIDRTKKPAVKLPEEHRIKSESTNHEQQSPQSGKVIPDRSTKPVVFSPTLMLTDEEKARIHAETALLMEKNKQEKELRERQQEEQKEKLRKEEQEQKAKKKQEAEENEITEKQQKAKEEMEKKESEQAKKEDKETSAKRGKEITGVKRQSKSEHETSDAKKSVEDRGKRCPTPEIQKKSTGDVPHTSVTGDSGSGKPFKIKGQPESGILRTGTFREDTDDTERNKAQREPLTRARSEEMGRIVPGLPSGWAKFLDPITGTFRYYHSPTNTVHMYPPEMAPSSAPPSTPPTHKAKPQIPAERDREPSKLKRSYSSPDITQAIQEEEKRKPTVTPTVNRENKPTCYPKAEISRLSASQIRNLNPVFGGSGPALTGLRNLGNTCYMNSILQCLCNAPHLADYFNRNCYQDDINRSNLLGHKGEVAEEFGIIMKALWTGQYRYISPKDFKITIGKINDQFAGYSQQDSQELLLFLMDGLHEDLNKADNRKRYKEENNDHLDDFKAAEHAWQKHKQLNESIIVALFQGQFKSTVQCLTCHKKSRTFEAFMYLSLPLASTSKCTLQDCLRLFSKEEKLTDNNRFYCSHCRARRDSLKKIEIWKLPPVLLVHLKRFSYDGRWKQKLQTSVDFPLENLDLSQYVIGPKNNLKKYNLFSVSNHYGGLDGGHYTAYCKNAARQRWFKFDDHEVSDISVSSVKSSAAYILFYTSLGPRVTDVAT
modifications: phosphorylated in the 14-3-3-binding motif
